Experimental data as given in US4734399A (Hoffmann-La Roche Inc., priority 1986, dated 1988).

Test: Boc solid-phase peptide synthesis; PAM-resin; DCC; symmetric anhydride procedure
Conditions: whole synthesis, scale 0.21 mmol

For [Ala^15,Leu^27,Asn^28 ]-GRF(1-32)-OH, the crude mass was 0.524 g.
